# Some of the results follow.
# Columns and labels:
# Assay in all cases: glycan array binding signal (z-score within array); higher = stronger binding
# Conditions in all cases: glycan notation: IUPAC condensed, linker removed
# [1] = biological target: Man(a1-2)Man(a1-3)[Man(a1-2)Man(a1-6)]Man(a1-6)[Man(a1-2)Man(a1-2)Man(a1-3)]Man
# Summary of the method: (§1)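 The binding signal is a Z-score computed within each array. Data were drawn from 3228 arrays in the Consortium for Functional Glycomics database, restricted to those with a known protein sequence. Scores were averaged over arrays of the same protein sequence at different concentrations or buffers, and over linkers, and negative values can be taken as non-binding.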
# [2] = biological target: Man(a1-2)Man(a1-3)[Man(a1-2)Man(a1-6)]Man(a1-6)[Man(a1-2)Man(a1-2)Man(a1-3)]Man(b1-4)GlcNAc(b1-4)GlcNAc
# Summary of the method: as §1
# [3] = biological target: Man(a1-2)Man(a1-3)[Man(a1-6)]Man(a1-6)[Man(a1-2)Man(a1-3)]Man(b1-4)GlcNAc(b1-4)GlcNAc
# Summary of the method: as §1
# [4] = biological target: Man(a1-2)Man(a1-6)[Man(a1-3)]Man(a1-6)[Man(a1-2)Man(a1-2)Man(a1-3)]Man
# Summary of the method: as §1
# [5] = biological target: Man(a1-2)Man(a1-6)[Man(a1-3)]Man(a1-6)[Man(a1-2)Man(a1-2)Man(a1-3)]Man(b1-4)GlcNAc(b1-4)GlcNAc
# Summary of the method: as §1
# Man(a1-3)[Man(a1-6)]Man = biological target: Man(a1-3)[Man(a1-6)]Man
# Summary of the method: as §1
# [6] = biological target: Man(a1-3)[Man(a1-6)]Man(a1-6)[Man(a1-2)Man(a1-3)]Man(b1-4)GlcNAc(b1-4)GlcNAc
# Summary of the method: as §1
# [7] = biological target: Man(a1-3)[Man(a1-6)]Man(a1-6)[Man(a1-3)]Man
# Summary of the method: as §1
# [8] = biological target: Man(a1-3)[Man(a1-6)]Man(a1-6)[Man(a1-3)]Man(b1-4)GlcNAc(b1-4)GlcNAc
# Summary of the method: as §1
# [9] = biological target: Man(a1-3)[Man(a1-6)]Man(b1-4)GlcNAc(b1-4)GlcNAc
# Summary of the method: as §1
# [10] = biological target: Man(a1-3)[Man(a1-6)]Man(b1-4)GlcNAc(b1-4)[Fuc(a1-6)]GlcNAc
# Summary of the method: as §1
# Man(a1-6)Man = biological target: Man(a1-6)Man
# Summary of the method: as §1
# Man(b1-4)GlcNAc = biological target: Man(b1-4)GlcNAc
# Summary of the method: as §1
# MurNAc(b1-4)GlcNAc = biological target: MurNAc(b1-4)GlcNAc
# Summary of the method: as §1
# Neu5Ac(a2-3)Gal = biological target: Neu5Ac(a2-3)Gal
# Summary of the method: as §1
# [11] = biological target: Neu5Ac(a2-3)Gal(b1-3)GalNAc
# Summary of the method: as §1
# [12] = biological target: Neu5Ac(a2-3)Gal(b1-3)GalNAc(b1-3)Gal(a1-4)Gal(b1-4)Glc
# Summary of the method: as §1
# [13] = biological target: Neu5Ac(a2-3)Gal(b1-3)GalNAc(b1-4)[Neu5Ac(a2-3)]Gal(b1-4)Glc
# Summary of the method: as §1
# [14] = biological target: Neu5Ac(a2-3)Gal(b1-3)GalNAc(b1-4)[Neu5Ac(a2-8)Neu5Ac(a2-3)]Gal(b1-4)Glc
# Summary of the method: as §1
# [15] = biological target: Neu5Ac(a2-3)Gal(b1-3)GalNAc6S
# Summary of the method: as §1
# [16] = biological target: Neu5Ac(a2-3)Gal(b1-3)GlcNAc
# Summary of the method: as §1
# [17] = biological target: Neu5Ac(a2-3)Gal(b1-3)GlcNAc(b1-2)Man
# Summary of the method: as §1
# [18] = biological target: Neu5Ac(a2-3)Gal(b1-3)GlcNAc(b1-2)Man(a1-3)[GlcNAc(b1-4)][Neu5Ac(a2-3)Gal(b1-3)GlcNAc(b1-2)Man(a1-6)]Man(b1-4)GlcNAc(b1-4)GlcNAc
# Summary of the method: as §1
# [19] = biological target: Neu5Ac(a2-3)Gal(b1-3)GlcNAc(b1-2)Man(a1-3)[Neu5Ac(a2-3)Gal(b1-3)GlcNAc(b1-2)Man(a1-6)]Man(b1-4)GlcNAc(b1-4)GlcNAc
# Summary of the method: as §1
# [20] = biological target: Neu5Ac(a2-3)Gal(b1-3)GlcNAc(b1-3)Gal(b1-3)GlcNAc
# Summary of the method: as §1
# [21] = biological target: Neu5Ac(a2-3)Gal(b1-3)GlcNAc(b1-3)Gal(b1-4)GlcNAc
# Summary of the method: as §1
# [22] = biological target: Neu5Ac(a2-3)Gal(b1-3)GlcNAc(b1-3)GalNAc
# Summary of the method: as §1
# [23] = biological target: Neu5Ac(a2-3)Gal(b1-3)GlcNAc(b1-4)Gal(b1-4)Glc
# Summary of the method: as §1
# [24] = biological target: Neu5Ac(a2-3)Gal(b1-3)GlcNAc(b1-6)GalNAc
# Summary of the method: as §1
# [25] = biological target: Neu5Ac(a2-3)Gal(b1-3)GlcNAc6S
# Summary of the method: as §1
binder,measurement,setting,value
TAL6-6LysM (Trichoderma atroviride) (protein) AASKLGVPQPAQRDQVNCQLYAVQPNDNCIDISSKNNITYAQLLSWNPSLSSTCSNLASLNSSSICVSNPKGTFSISSNTVGATDIATTTAPVPSPTLDQTTSRCAKYYQVSDGDDCSHLTAQFAITLKDFIFLNSEVWQNCTNLELGYYYCVEPVGYISTYPGYLPTATTKPFNQTSATSLPYDGDPWARFSSNSSVIPIANGTRVDCYSYVYVKNLTENLFADCWNMASMYEITREELVLWNPSLGNDGSSGSNLSGAEASQVASSIAIPTTAPSSITTNLYTYPCTVAANISYCVALVSSTGALPTNTAPPGPHASGEISNCTAWFAPEAYDTCKSILDIFEMSFANFYKMNPSVGPDCSGLAVGTNYCVSTYPNGEDPNDDWDGDDSIPSISPTGIITPTPTQSGMVSNCNKFYDVHSNDGCSAIASSQHVDLSSLYKWNPAIKTDCSGLQASVYVCIGILTTSMSTTSKLPTTTSKPSTTSKPPTGITTPTPTQSGMVKNCNKFYDVHSGDGCSAIASSQKVNLSSFYLWNPAVKTDCSGLQASVFVCIGTLTTSMSTTTSKLPTTTSKPSTTSKPPTGIITPTPTQNGMVKNCNKFYDVHSGDGCSAIASSQKVNLSSFYLWNPAVKTDCSGLQASVFVCVGTATTTTAAGITTPTPTQSGMVSGCNKFYDVHAGDGCSAIASSQKIALSSLYKWNPAVKTDCSGLQASVYICIGVGNAAAARVTGAAASFLEQKLISEEDLNSAVDHHHHHH,glycan array binding signal (z-score),[1],-0.014
same,glycan array binding signal (z-score),[2],-0.42
same,glycan array binding signal (z-score),[3],-0.093
same,glycan array binding signal (z-score),[4],0.122
same,glycan array binding signal (z-score),[5],-0.099
same,glycan array binding signal (z-score),Man(a1-3)[Man(a1-6)]Man,-0.021
same,glycan array binding signal (z-score),[6],2.52
same,glycan array binding signal (z-score),[7],-0.726
same,glycan array binding signal (z-score),[8],0.136
same,glycan array binding signal (z-score),[9],-0.274
same,glycan array binding signal (z-score),[10],0.172
same,glycan array binding signal (z-score),Man(a1-6)Man,-0.108
same,glycan array binding signal (z-score),Man(b1-4)GlcNAc,0.53
same,glycan array binding signal (z-score),MurNAc(b1-4)GlcNAc,0.385
same,glycan array binding signal (z-score),Neu5Ac(a2-3)Gal,0.154
same,glycan array binding signal (z-score),[11],-1.43
same,glycan array binding signal (z-score),[12],-0.741
same,glycan array binding signal (z-score),[13],-0.8
same,glycan array binding signal (z-score),[14],-0.659
same,glycan array binding signal (z-score),[15],0.649
same,glycan array binding signal (z-score),[16],-0.539
same,glycan array binding signal (z-score),[17],0.461
same,glycan array binding signal (z-score),[18],0.807
same,glycan array binding signal (z-score),[19],-1.38
same,glycan array binding signal (z-score),[20],1.14
same,glycan array binding signal (z-score),[21],-0.457
same,glycan array binding signal (z-score),[22],2.37
same,glycan array binding signal (z-score),[23],0.273
same,glycan array binding signal (z-score),[24],-0.412
same,glycan array binding signal (z-score),[25],-0.031

# Part of the list above in a different format:
binder | measurement | setting | value
TAL6-6LysM (Trichoderma atroviride) (protein) AASKLGVPQPAQRDQVNCQLYAVQPNDNCIDISSKNNITYAQLLSWNPSLSSTCSNLASLNSSSICVSNPKGTFSISSNTVGATDIATTTAPVPSPTLDQTTSRCAKYYQVSDGDDCSHLTAQFAITLKDFIFLNSEVWQNCTNLELGYYYCVEPVGYISTYPGYLPTATTKPFNQTSATSLPYDGDPWARFSSNSSVIPIANGTRVDCYSYVYVKNLTENLFADCWNMASMYEITREELVLWNPSLGNDGSSGSNLSGAEASQVASSIAIPTTAPSSITTNLYTYPCTVAANISYCVALVSSTGALPTNTAPPGPHASGEISNCTAWFAPEAYDTCKSILDIFEMSFANFYKMNPSVGPDCSGLAVGTNYCVSTYPNGEDPNDDWDGDDSIPSISPTGIITPTPTQSGMVSNCNKFYDVHSNDGCSAIASSQHVDLSSLYKWNPAIKTDCSGLQASVYVCIGILTTSMSTTSKLPTTTSKPSTTSKPPTGITTPTPTQSGMVKNCNKFYDVHSGDGCSAIASSQKVNLSSFYLWNPAVKTDCSGLQASVFVCIGTLTTSMSTTTSKLPTTTSKPSTTSKPPTGIITPTPTQNGMVKNCNKFYDVHSGDGCSAIASSQKVNLSSFYLWNPAVKTDCSGLQASVFVCVGTATTTTAAGITTPTPTQSGMVSGCNKFYDVHAGDGCSAIASSQKIALSSLYKWNPAVKTDCSGLQASVYICIGVGNAAAARVTGAAASFLEQKLISEEDLNSAVDHHHHHH | glycan array binding signal (z-score) | MurNAc(b1-4)GlcNAc | 0.385
same | glycan array binding signal (z-score) | Neu5Ac(a2-3)Gal | 0.154
